Test results: patent publication US20200040070A1 (CHEMOMAB, published 2020)
No constants are given. Whether binding was seen depends on the method and setting. Some entries that bind do so weakly or less than the wild type.

By UniProt entry, the sequences of proteins in these tests, tags left out. Residues count along the entry.
UniProt P51671, residues 24-97: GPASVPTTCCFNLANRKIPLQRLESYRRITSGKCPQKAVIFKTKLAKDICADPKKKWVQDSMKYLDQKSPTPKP
UniProt P80098, residues 24-99: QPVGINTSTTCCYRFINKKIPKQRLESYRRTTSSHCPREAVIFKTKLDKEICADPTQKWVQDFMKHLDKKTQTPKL

Tests used:
Eotaxin 1 (CCL11) [1] = molecular target: T1, Eotaxin 1 (CCL11) (human, UniProt P51671 24-97); test: SPR (Biacore T200)
T1 construct: also called human CCL11

MCP3 (CCL7) [2] = molecular target: MCP3 (CCL7) (UniProt P80098); test: SPR (Biacore T200)
Eotaxin 1 (CCL11) [3] = molecular target: T1, Eotaxin 1 (CCL11); test: SPR (Biacore), referred back to
MCP3 (CCL7) [4] = molecular target: MCP3 (CCL7) (UniProt P80098); test: SPR (Biacore), referred back to

Measured: binding

B1: fully humanized anti CCL24 antibody HCM101 (antibody, V domains shown)
VH: QIQLVQSGPELKKPGASVKVSCRASGYPFTNSGMNWVKQAPGKGLKWMGWINTYNGEPTYTDDFKGRFAFSLETSASTAYLQINNLRNEDTATYFCASHSYGSSYAMDNWGQGTSVTVSS
VL: DIVLTQSPDSLAVSLGERATINCKASQSVDYDGDSYMNWYQQKPGQPPKLLIYVASNLKSGIPARFSGSGSGTDFTLTISSLQPEDFATYYCQQSNEEPWTFGGGTKVEIK
notes: also called humanized version of CM101
binds: all assays above
